Data: article PMC10224957
These are yes or no findings as the source states them, for the method shown. For some assays here: Binding seen in cells or lysates may run through a third protein. Some binding calls cover weakened binding; strength is not graded here. Values belong to the binder of their own block, whether it stands above or below them.

Assays:
[1] = target: T1, Juxtaposed with another zinc finger protein 1 (JAZF1) (human (endogenous in immortalized HESCs)) (UniProt Q86VZ6); assay: co-IP; IP with anti-JAZF1 (Santa Cruz, sc-376503X) or normal mouse IgG and protein A + G magnetic beads from decidualized immortalized HESCs; washed three times in lysis buffer; immunoblot
T1 sequence: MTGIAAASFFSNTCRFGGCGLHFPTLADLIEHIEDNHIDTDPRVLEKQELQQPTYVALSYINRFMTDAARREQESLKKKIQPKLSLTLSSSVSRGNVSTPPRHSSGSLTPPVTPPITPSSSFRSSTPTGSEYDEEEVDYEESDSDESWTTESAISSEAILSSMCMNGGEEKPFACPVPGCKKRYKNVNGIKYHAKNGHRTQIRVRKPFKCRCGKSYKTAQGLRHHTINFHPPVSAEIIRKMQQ

[2] = target: T2, Purβ on the HuProt microarray (human) (UniProt Q96QR8); assay: peptide or protein array; HuProt 20K microarray of GST-tagged human full-length proteins, blocked with BSA in PBS; biotin-labeled JAZF1 protein (3 µg in 3 ml blocking solution) incubated at RT for 1 hr; streptavidin-Cy5; both purified
T2 sequence: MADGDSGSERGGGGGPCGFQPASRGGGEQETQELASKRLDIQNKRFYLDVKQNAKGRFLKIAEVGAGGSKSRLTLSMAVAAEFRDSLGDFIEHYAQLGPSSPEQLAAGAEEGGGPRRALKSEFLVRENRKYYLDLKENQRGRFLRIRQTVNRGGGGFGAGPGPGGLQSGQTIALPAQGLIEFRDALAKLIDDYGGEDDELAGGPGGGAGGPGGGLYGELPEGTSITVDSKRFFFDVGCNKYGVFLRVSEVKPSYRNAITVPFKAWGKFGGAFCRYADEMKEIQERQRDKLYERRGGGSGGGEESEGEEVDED

B1: Purβ (protein, UniProt Q96QR8 1-312)
chain: T2 sequence
binding [1]: binds

binding [2]: binds
B2: JAZF1 protein, labeled with biotin (protein, UniProt Q86VZ6 1-243)
chain: T1 sequence
modifications: biotin
